Laboratory results taken from PubChem BioAssay AID222 (DTP/NCI, 2004).
The list shows only some results of the screen, not a fair sample: it gathers tests that were run many times, whatever their T/C, doses with no T/C, and many T/C values between a quarter and a half above the control. Other doses and runs of a compound stand elsewhere. T/C is the treated group as % of the vehicle group. Some entries give survivors of the animals treated and no T/C: the source holds a T/C of zero for them, seemingly a mark for toxic or unscored doses. Some survivor counts are full or nearly so, which does not show that the dose was tolerated: survival well below the control is almost never listed, so the zero probably covers shortened survival too. Survivors were counted at the toxicity check, usually on the fifth day, unless a day is given; later deaths do not show. Schedule codes are those of the source, read here as Q, the interval in days (D) or hours (H), X, the number of doses. Some doses were run more than once; the values are given in rising order. For survival time, the PubChem record calls one and a half times the control and up active, and a quarter to a half above the control has no call in these data; cut-offs in other NCI protocols can differ. Some T/C values carry the count of animals alive at the toxicity check (mostly the fifth day); where none is given, no animal had died by that day.

Tested on: C57BL/6 mice, intracerebral ependymoblastoma, median survival T/C
Experiment: NCI In Vivo Anticancer Drug Screen. Data for tumor model Ependymoblastoma (intracerebral) in C57BL/6 mice
Details: T/C endpoint: median survival time, higher T/C = longer survival
Procedure: The antitumor activity of compounds was measured in mice bearing transplantable tumors. Survival or tumor size were measured and the results are expressed as the measurement made in the treated group (T) divided by the measurement made in the vehicle treated control group (C). The tumor model used in this assay is Ependymoblastoma (intracerebral) in C57BL/6 mice

[1] = dose: 16.0 mg/kg/injection, schedule: Q01DX005 (ip), vehicle: saline with Tween-80
[2] = dose: 32.0 mg/kg/injection, schedule: Q01DX005 (ip), vehicle: saline with Tween-80
[3] = dose: 64.0 mg/kg/injection, schedule: Q01DX005 (ip), vehicle: saline with Tween-80
[4] = dose: 128.0 mg/kg/injection, schedule: Q01DX005 (ip), vehicle: saline with Tween-80
[5] = dose: 256.0 mg/kg/injection, schedule: Q01DX005 (ip), vehicle: saline with Tween-80

N=c1ccn2c(n1)OC1C(O)C(CO)OC12 (configuration not stated)
survivor count (dose: 400.0 mg/kg/injection, schedule: Q01DX005 (ip), vehicle: saline): 10 of 10 | survivor count (dose: 800.0 mg/kg/injection, schedule: Q01DX005 (ip), vehicle: saline): 8 of 10 and 10 of 10 | T/C (dose: 1600.0 mg/kg/injection, schedule: Q01DX001 (ip), vehicle: saline): 126 % of control [7 of 10 alive] | survivor count (dose: 1600.0 mg/kg/injection, schedule: Q01DX005 (ip), vehicle: saline): 7 of 10

Clc1ccc(C(c2ccc(Cl)cc2)C(Cl)(Cl)Cl)cc1
survivor count (dose: 64.0 mg/kg/injection, schedule: Q01DX005 (ip), vehicle: Klucel (hydroxypropylcellulose) (HPC)): 8 of 10 | survivor count (dose: 128.0 mg/kg/injection, schedule: Q01DX005 (ip), vehicle: Klucel (hydroxypropylcellulose) (HPC)): 4 of 10

NC(C/[N+]([O-])=N/O)C(=O)O (configuration not stated)
survivor count [1]: 9 of 10 | T/C (dose: 28.0 mg/kg/injection, schedule: Q01DX005 (ip), vehicle: saline): 125 % of control | survivor count [2]: 10 of 10 | survivor count [3]: 9 of 10 | survivor count (dose: 100.0 mg/kg/injection, schedule: Q01DX009 (ip), vehicle: Klucel (hydroxypropylcellulose) (HPC)): 6 of 10 | survivor count (dose: 112.0 mg/kg/injection, schedule: Q01DX005 (ip), vehicle: saline): 8 of 10 | survivor count (dose: 112.5 mg/kg/injection, schedule: Q01DX005 (ip), vehicle: saline): 3 of 10 and 6 of 10 | survivor count [4]: 9 of 10 | survivor count (dose: 200.0 mg/kg/injection, schedule: Q01DX009 (ip), vehicle: Klucel (hydroxypropylcellulose) (HPC)): 8 of 10 | survivor count (dose: 225.0 mg/kg/injection, schedule: Q01DX005 (ip), vehicle: saline): 1 of 10 and 2 of 10 | survivor count [5]: 6 of 10 | survivor count (dose: 400.0 mg/kg/injection, schedule: Q01DX009 (ip), vehicle: Klucel (hydroxypropylcellulose) (HPC)): 0 of 10 | survivor count (dose: 450.0 mg/kg/injection, schedule: Q01DX005 (ip), vehicle: saline): 2 of 10 and 3 of 10 | survivor count (dose: 800.0 mg/kg/injection, schedule: Q01DX009 (ip), vehicle: Klucel (hydroxypropylcellulose) (HPC)): 0 of 10 | survivor count (dose: 900.0 mg/kg/injection, schedule: Q01DX005 (ip), vehicle: saline): 0 of 10 | survivor count (dose: 1800.0 mg/kg/injection, schedule: Q01DX005 (ip), vehicle: saline): 1 of 10

CC/C(=C(/CC)c1ccc(O)cc1)c1ccc(O)cc1
survivor count [4]: 10 of 10 | survivor count (dose: 128.0 mg/kg/injection, schedule: Q01DX005 (ip), vehicle: saline): 10 of 10 | survivor count (dose: 256.0 mg/kg/injection, schedule: Q01DX005 (ip), vehicle: saline): 9 of 10 | survivor count (dose: 512.0 mg/kg/injection, schedule: Q01DX005 (ip), vehicle: saline): 10 of 10

CC(=O)OC(C1CO1)C(OC(C)=O)C1CO1 (configuration not stated)
survivor count (dose: 20.0 mg/kg/injection, schedule: Q01DX005 (ip), vehicle: saline): 10 of 10 | survivor count (dose: 24.0 mg/kg/injection, schedule: Q01DX005 (ip), vehicle: saline): 1 of 7 | survivor count (dose: 28.0 mg/kg/injection, schedule: Q01DX005 (oral), vehicle: saline): 3 of 7

Nc1ncnc2nc[nH]c12
survivor count [3]: 8 of 10 | survivor count [5]: 8 of 10 | survivor count (dose: 512.0 mg/kg/injection, schedule: Q01DX005 (ip), vehicle: saline with Tween-80): 5 of 10 | survivor count (dose: 1024.0 mg/kg/injection, schedule: Q01DX005 (ip), vehicle: saline with Tween-80): 0 of 10

O=NN(CCF)C(=O)NC1CCCCC1
survivor count (dose: 40.0 mg/kg/injection, schedule: Q01DX005 (ip), vehicle: suspension in saline): 1 of 10 | survivor count (dose: 80.0 mg/kg/injection, schedule: Q01DX005 (ip), vehicle: suspension in saline): 0 of 10 | survivor count (dose: 160.0 mg/kg/injection, schedule: Q01DX005 (ip), vehicle: suspension in saline): 0 of 10

O=c1cnn(C2OC(CO)C(O)C2O)c(=O)[nH]1 (configuration not stated)
survivor count (dose: 250.0 mg/kg/injection, schedule: Q01DX005 (ip), vehicle: saline): 1 of 6 | survivor count (dose: 2000.0 mg/kg/injection, schedule: Q01DX005 (ip), vehicle: saline): 6 of 6

COc1cccc2c1C(=O)c1c(O)c3c(c(O)c1C2=O)C[C@@](O)(/C(C)=N/NC(=O)c1ccccc1)C[C@@H]3OC1CC(N)C(O)C(C)O1 (some centres not stated)
survivor count (dose: 8.0 mg/kg/injection, schedule: Q01DX005 (ip), vehicle: saline with Tween-80): 10 of 10 | survivor count (dose: 8.0 mg/kg/injection, schedule: Q01DX009 (ip), vehicle: saline): 10 of 10 | survivor count [1]: 9 of 10 | survivor count [2]: 2 of 10
